{"source": "PubChem BioAssay AID504444", "about": "(National Center for Advancing Translational Sciences (NCATS), 2011)", "note": "The campaign covered roughly 360,000 compounds. About 7,500 (2.1%) were called active. Inconclusive results, whose numbers are uncertain, are shown with a selection of clear calls. Calls follow the shape of the dose curve; as a rule, active = well fitted inhibition curve with a large enough effect; inconclusive = small, poorly fitted or top-dose-only effect, or effect the other way; inactive = flat fitted curve, though single readings scatter. A potency beside an inconclusive call is a rough fit, not a confirmed value. Potency is read from the fitted curve at half-maximal effect."}
{"experiment": "Nrf2 qHTS screen for inhibitors; also: nearly all actives have a fitted effect of over 60% in size", "details": "A549 ARE-Fluc reporter, luciferase luminescence, 18-24 h; series mostly up to 46 µM", "procedure,_shortened": "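Concentration-response testing used A549 ARE_Fluc cells at 5000 cells/well. Following an 18-24 h compound incubation, viability was read by fluorescence (Ex 405/Em 525) and luciferase output by luminescence.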"}
{"smiles": "Cc1ccc(C)c(OCC(=O)Nc2cccc(C(=O)O)c2)c1C", "Potency": "inconclusive: 13 µM [activator, partial curve]"}
{"smiles": "CC(C)(C)c1ccc(NC(=O)CSc2nnc3scc(-c4ccccc4)n23)cc1", "Potency": "active: 16.4 µM"}
{"smiles": "CCOC(=O)c1cnc2c(OC)cccc2c1Nc1cccc(O)c1", "Potency": "inconclusive: 20.6 µM [falling, single point]"}
{"smiles": "Cc1nc2cccnc2n1-c1cccc(C(=O)NCCc2ccc(Cl)cc2)c1", "Potency": "inconclusive: 7.31 µM [falling, full curve, poor fit]"}
{"smiles": "COc1ccc(C(=O)NCC23C=CC(O2)C2C(=O)N(Cc4ccccc4)C(=O)C23)cc1", "note": "(configuration not stated)", "Potency": "inconclusive: 2.91 µM [falling, partial curve, poor fit]"}
{"smiles": "Cc1cc(Cl)ccc1OC(C)C(=O)N1CCCN(C(=O)C(C)Oc2ccc(Cl)cc2C)CC1", "note": "(configuration not stated)", "Potency": "active: 16.4 µM"}
{"smiles": "Cc1nnc(NC(=O)CSc2ncnc3c2cnn3-c2ccccc2C)s1", "Potency": "inconclusive: 10.3 µM [falling, partial curve]"}
{"smiles": "COC(=O)c1ccc(N=NN2CCOCC2)cc1", "Potency": "inconclusive: 3.66 µM [activator, partial curve, poor fit]"}
{"smiles": "CCC(=O)N1CCCc2cc(S(=O)(=O)Nc3ccc(C)c(C)c3)ccc21", "Potency": "inconclusive: 29.1 µM [falling, single point]"}
{"smiles": "CCCCN(CC)C(=O)Cn1c(=O)n(-c2ccc(OCC)cc2)c(=O)c2c3c(sc21)CCCC3", "Potency": "inconclusive: 23.1 µM [falling, partial curve, poor fit]"}
{"smiles": "O=C(Nc1ccc2nc(SCC(=O)N3CCCc4ccccc43)sc2c1)c1ccc(F)cc1", "Potency": "inconclusive: 16.4 µM [falling, partial curve]"}
{"smiles": "COc1ccc2[nH]c(C(=O)N3CCC(CO)(Cc4cccc(C(F)(F)F)c4)CC3)c(C)c2c1", "Potency": "inconclusive: 29.1 µM [falling, partial curve, poor fit]"}
{"smiles": "CN(C)S(=O)(=O)c1cccc(NC(=O)c2ccc(NS(=O)(=O)c3cccs3)cc2)c1", "Potency": "inactive"}
{"smiles": "O=C(CN1CCC(C(=O)c2ccc(Cl)cc2)CC1)NC1CCCC1", "Potency": "inconclusive: 13 µM [falling, partial curve, poor fit]"}
{"smiles": "O=S(=O)(Nc1cccc(-c2ccc(N3CCCCCC3)nn2)c1)c1ccccc1Cl", "Potency": "inconclusive: 11.6 µM [falling, partial curve, poor fit]"}
{"smiles": "Cc1ccc(CCNC(=O)c2c(C)oc3ncnc(N4CCOCC4)c23)cc1", "Potency": "inconclusive: 29.1 µM [activator, single point]"}
{"smiles": "Fc1cccc(NCc2cccn2-c2nnc(N3CCOCC3)s2)c1", "Potency": "inconclusive: 11.6 µM [activator, partial curve, poor fit]"}
